The full ranking holds about 1,900 compounds; the median of “excess over highest single agent (ExcessHSA) synergy score, 6x6 matrix” is about -83, and the lowest 2% start at about -370. The list shows a part of the results.

For the test, the system named is NCI-H446. Briefly: excess over highest single agent (ExcessHSA) synergy score, 6x6 matrix; higher = less synergy (more negative = stronger synergy). To be noted: 72 h; CellTiter-Glo viability.
For `Cc1nc(NC(=O)N2CCC[C@H]2C(N)=O)sc1-c1ccnc(C(C)(C)C(F)(F)F)c1` + Cc1sc2c(c1C)C(c1ccc(Cl)cc1)=N[C@@H](CC(=O)OC(C)(C)C)c1nnc(C)n1-2 [NCGC00250412-19], the “excess over highest single agent” value was -208. On to `Cc1[nH]c(/C=C2\C(=O)Nc3ccc(S(=O)(=O)N(C)c4cccc(Cl)c4)cc32)c(C)c1C(=O)N1CCN(C)CC1` + Cc1sc2c(c1C)C(c1ccc(Cl)cc1)=N[C@@H](CC(=O)OC(C)(C)C)c1nnc(C)n1-2 [NCGC00250412-19], for which the “excess over highest single agent” value is -183. As to `CN(C)Cc1ccc(-c2nc3cccc4c3n2CCNC4=O)cc1` + Cc1sc2c(c1C)C(c1ccc(Cl)cc1)=N[C@@H](CC(=O)OC(C)(C)C)c1nnc(C)n1-2 [NCGC00250412-19], the “excess over highest single agent” value is -101. For the compound `CC1(C)NC(=O)N(c2ccc([N+](=O)[O-])c(C(F)(F)F)c2)C1=O` + Cc1sc2c(c1C)C(c1ccc(Cl)cc1)=N[C@@H](CC(=O)OC(C)(C)C)c1nnc(C)n1-2 [NCGC00250412-19], the “excess over highest single agent” value was -33.6. Regarding `CCOc1cc(/C=C2/C(=O)N(c3ccccc3)N=C2C)cc(Cl)c1OCC(=O)OC` + Cc1sc2c(c1C)C(c1ccc(Cl)cc1)=N[C@@H](CC(=O)OC(C)(C)C)c1nnc(C)n1-2 [NCGC00250412-19], the “excess over highest single agent” value was 76.6. With `COC(=O)[C@@H]1[C@H]2C[C@H]3c4[nH]c5ccccc5c4CCN3C[C@@H]2CC[C@@H]1O` + Cc1sc2c(c1C)C(c1ccc(Cl)cc1)=N[C@@H](CC(=O)OC(C)(C)C)c1nnc(C)n1-2 [NCGC00250412-19], the “excess over highest single agent” value was -177. With `C[N+](C)([O-])CCNc1ccc(NCC[N+](C)(C)[O-])c2c1C(=O)c1c(O)ccc(O)c1C2=O` + Cc1sc2c(c1C)C(c1ccc(Cl)cc1)=N[C@@H](CC(=O)OC(C)(C)C)c1nnc(C)n1-2 [NCGC00250412-19], the “excess over highest single agent” value is -286. Regarding `CCNC(=O)Nc1ccc(Oc2ncnc(N)c2/C=N/OC)cc1Cl` + Cc1sc2c(c1C)C(c1ccc(Cl)cc1)=N[C@@H](CC(=O)OC(C)(C)C)c1nnc(C)n1-2 [NCGC00250412-19], the “excess over highest single agent” value was -74.4. The same measure for `CCCS(=O)(=O)Nc1ccc(F)c(C(=O)c2c[nH]c3ncc(-c4ccc(Cl)cc4)cc23)c1F` + Cc1sc2c(c1C)C(c1ccc(Cl)cc1)=N[C@@H](CC(=O)OC(C)(C)C)c1nnc(C)n1-2 [NCGC00250412-19]: -108; for `O=C(Nc1c(Cl)cncc1Cl)c1ccc(OC(F)F)c(OCC2CC2)c1` + Cc1sc2c(c1C)C(c1ccc(Cl)cc1)=N[C@@H](CC(=O)OC(C)(C)C)c1nnc(C)n1-2 [NCGC00250412-19]: -238. The same measure for `O=S(=O)(O)CCS` + Cc1sc2c(c1C)C(c1ccc(Cl)cc1)=N[C@@H](CC(=O)OC(C)(C)C)c1nnc(C)n1-2 [NCGC00250412-19]: -144; for `CCOc1ccccc1OCCN[C@H](C)Cc1ccc(OC)c(S(N)(=O)=O)c1` + Cc1sc2c(c1C)C(c1ccc(Cl)cc1)=N[C@@H](CC(=O)OC(C)(C)C)c1nnc(C)n1-2 [NCGC00250412-19]: 11.6. Take `CC(=O)OCC(=O)[C@@]12N=C(C)O[C@@H]1C[C@H]1[C@@H]3CCC4=CC(=O)C=C[C@]4(C)[C@H]3[C@@H](O)C[C@@]12C` + Cc1sc2c(c1C)C(c1ccc(Cl)cc1)=N[C@@H](CC(=O)OC(C)(C)C)c1nnc(C)n1-2 [NCGC00250412-19]: the “excess over highest single agent” value is -66.1. With `C[C@@H](CN1CC(=O)NC(=O)C1)N1CC(=O)NC(=O)C1` + Cc1sc2c(c1C)C(c1ccc(Cl)cc1)=N[C@@H](CC(=O)OC(C)(C)C)c1nnc(C)n1-2 [NCGC00250412-19], the “excess over highest single agent” value is -70.8. As for `Cc1nc2n(c(=O)c1CCN1CCC(c3noc4cc(F)ccc34)CC1)CCCC2` + Cc1sc2c(c1C)C(c1ccc(Cl)cc1)=N[C@@H](CC(=O)OC(C)(C)C)c1nnc(C)n1-2 [NCGC00250412-19], the “excess over highest single agent” value is -63.2. The same measure for `C=C1C[C@@H]2[C@H](CC[C@]3(C)C(=O)CC[C@@H]23)[C@@]2(C)C=CC(=O)C=C12` + Cc1sc2c(c1C)C(c1ccc(Cl)cc1)=N[C@@H](CC(=O)OC(C)(C)C)c1nnc(C)n1-2 [NCGC00250412-19]: -73.6; for `CC(=O)N[C@H]1[C@H]([C@H](O)[C@H](O)CO)OC(C(=O)O)=C[C@@H]1NC(=N)N` + Cc1sc2c(c1C)C(c1ccc(Cl)cc1)=N[C@@H](CC(=O)OC(C)(C)C)c1nnc(C)n1-2 [NCGC00250412-19]: -46.3; for `Cc1cnc(CNC(=O)c2c(=O)c3ccc(N4CCCN(C)CC4)nc3n3c2sc2ccccc23)cn1` + Cc1sc2c(c1C)C(c1ccc(Cl)cc1)=N[C@@H](CC(=O)OC(C)(C)C)c1nnc(C)n1-2 [NCGC00250412-19]: -259. `N[C@@H](C(=O)N[C@@H]1C(=O)N2C(C(=O)O)=C(Cl)CS[C@H]12)c1ccccc1` + Cc1sc2c(c1C)C(c1ccc(Cl)cc1)=N[C@@H](CC(=O)OC(C)(C)C)c1nnc(C)n1-2 [NCGC00250412-19]: the “excess over highest single agent” value is -60.6. `CC[C@@H]1/C=C(\C)C[C@H](C)C[C@H](OC)[C@H]2O[C@@](O)(C(=O)C(=O)N3CCCC[C@H]3C(=O)O[C@H](/C(C)=C/[C@@H]3CC[C@H](Cl)[C@H](OC)C3)[C@H](C)[C@@H](O)CC1=O)[C@H](C)C[C@@H]2OC` + Cc1sc2c(c1C)C(c1ccc(Cl)cc1)=N[C@@H](CC(=O)OC(C)(C)C)c1nnc(C)n1-2 [NCGC00250412-19]: the “excess over highest single agent” value is -132.

As to `Cc1cc(Nc2nc(N[C@@H](C)c3ncc(F)cn3)ncc2Cl)[nH]n1` + Cc1sc2c(c1C)C(c1ccc(Cl)cc1)=N[C@@H](CC(=O)OC(C)(C)C)c1nnc(C)n1-2 [NCGC00250412-19], the “excess over highest single agent” value is -46. Take `COC[C@H](NC(=O)c1cnc(C)s1)C(=O)N[C@@H](COC)C(=O)N[C@@H](Cc1ccccc1)C(=O)[C@@]1(C)CO1` + Cc1sc2c(c1C)C(c1ccc(Cl)cc1)=N[C@@H](CC(=O)OC(C)(C)C)c1nnc(C)n1-2 [NCGC00250412-19]: the “excess over highest single agent” value was -227. In the case of `O=C(O)c1c(Cl)c(Cl)c(Cl)c(Cl)c1-c1c2cc(I)c(=O)c(I)c-2oc2c(I)c(O)c(I)cc12` + Cc1sc2c(c1C)C(c1ccc(Cl)cc1)=N[C@@H](CC(=O)OC(C)(C)C)c1nnc(C)n1-2 [NCGC00250412-19], the “excess over highest single agent” value is -111. The same measure for `CN(CCOc1ccc(CC2SC(=O)NC2=O)cc1)c1ccccn1` (stereo not drawn) + Cc1sc2c(c1C)C(c1ccc(Cl)cc1)=N[C@@H](CC(=O)OC(C)(C)C)c1nnc(C)n1-2 [NCGC00250412-19]: -182; for `CCOC(=O)c1c(C)n(C)c2ccc(O)cc12` + Cc1sc2c(c1C)C(c1ccc(Cl)cc1)=N[C@@H](CC(=O)OC(C)(C)C)c1nnc(C)n1-2 [NCGC00250412-19]: -56.1. Consider `CCC(=O)NC[C@H](Cc1ccc(OCCc2nc(-c3ccccc3)oc2C)cc1)N/C(C)=C\C(=O)c1ccc(C(F)(F)F)cc1` + Cc1sc2c(c1C)C(c1ccc(Cl)cc1)=N[C@@H](CC(=O)OC(C)(C)C)c1nnc(C)n1-2 [NCGC00250412-19], for which the “excess over highest single agent” value came out at 200. Turning to `N#Cc1ccc(Oc2ccc3c(c2)COB3O)cc1` + Cc1sc2c(c1C)C(c1ccc(Cl)cc1)=N[C@@H](CC(=O)OC(C)(C)C)c1nnc(C)n1-2 [NCGC00250412-19], the “excess over highest single agent” value was -39.2. As to `CC(N)C12CC3CC(CC(C3)C1)C2` (stereo not drawn) + Cc1sc2c(c1C)C(c1ccc(Cl)cc1)=N[C@@H](CC(=O)OC(C)(C)C)c1nnc(C)n1-2 [NCGC00250412-19], the “excess over highest single agent” value is -112. Turning to `O=C(N[C@@H](c1ccccc1)[C@@H]1CCCCN1)c1cccc(C(F)(F)F)c1Cl` + Cc1sc2c(c1C)C(c1ccc(Cl)cc1)=N[C@@H](CC(=O)OC(C)(C)C)c1nnc(C)n1-2 [NCGC00250412-19], the “excess over highest single agent” value was -153.

On to `CCCc1nc(C(C)(C)O)c(C(=O)O)n1Cc1ccc(-c2ccccc2-c2nnn[nH]2)cc1` + Cc1sc2c(c1C)C(c1ccc(Cl)cc1)=N[C@@H](CC(=O)OC(C)(C)C)c1nnc(C)n1-2 [NCGC00250412-19], for which the “excess over highest single agent” value was -110. On to `COc1ccc2[nH]c([S+]([O-])Cc3ncc(C)c(OC)c3C)nc2c1` (stereo not drawn) + Cc1sc2c(c1C)C(c1ccc(Cl)cc1)=N[C@@H](CC(=O)OC(C)(C)C)c1nnc(C)n1-2 [NCGC00250412-19], for which the “excess over highest single agent” value worked out at 45.9.

Take `COc1nc(-c2ccc3c(c2)OCO3)n(-c2ccc(NC(=O)CSc3ccccc3)cc2)n1` + Cc1sc2c(c1C)C(c1ccc(Cl)cc1)=N[C@@H](CC(=O)OC(C)(C)C)c1nnc(C)n1-2 [NCGC00250412-19]: the “excess over highest single agent” value was -11.

Regarding `O=P1(N(CCCl)CCCl)NCCCO1` (stereo not drawn) + Cc1sc2c(c1C)C(c1ccc(Cl)cc1)=N[C@@H](CC(=O)OC(C)(C)C)c1nnc(C)n1-2 [NCGC00250412-19], the “excess over highest single agent” value turned out to be 93.6.

For the compound `CC(=O)Nc1ccc(O)cc1` + Cc1sc2c(c1C)C(c1ccc(Cl)cc1)=N[C@@H](CC(=O)OC(C)(C)C)c1nnc(C)n1-2 [NCGC00250412-19], the “excess over highest single agent” value is -55.9.

In the case of `C[C@]12COC(=O)C[C@@H]1CC[C@@H]1[C@@H]2CC[C@@]2(C)[C@H]1CC[C@]2(C)O` + Cc1sc2c(c1C)C(c1ccc(Cl)cc1)=N[C@@H](CC(=O)OC(C)(C)C)c1nnc(C)n1-2 [NCGC00250412-19], the “excess over highest single agent” value was -220. Take `O=C1NC(=O)C(c2cnc3ccccn23)=C1c1cn2c3c(cccc13)CN(C(=O)N1CCOCC1)CC2` + Cc1sc2c(c1C)C(c1ccc(Cl)cc1)=N[C@@H](CC(=O)OC(C)(C)C)c1nnc(C)n1-2 [NCGC00250412-19]: the “excess over highest single agent” value is -24.9. Turning to `Nc1cccc2c1CN(C1CCC(=O)NC1=O)C2=O` (stereo not drawn) + Cc1sc2c(c1C)C(c1ccc(Cl)cc1)=N[C@@H](CC(=O)OC(C)(C)C)c1nnc(C)n1-2 [NCGC00250412-19], the “excess over highest single agent” value was -79.8. Take `COc1cc2nc(-c3cc(F)ccc3O)nc(N[C@@H]3CNC[C@H]3C(C)(C)O)c2cc1OC` + Cc1sc2c(c1C)C(c1ccc(Cl)cc1)=N[C@@H](CC(=O)OC(C)(C)C)c1nnc(C)n1-2 [NCGC00250412-19]: the “excess over highest single agent” value was determined as 40.9.

The values are drawn from the supplement of paper PMC10077471.
